Assay results reported in patent publication US8883779B2, “Oxazine derivatives and a pharmaceutical composition for inhibiting BACE1 containing them” (Shinogi & Co., Ltd., priority 2011, dated 2014).
Some of these results come from one statement about several compounds together.

Chains of the proteins cited; added tags and fusions are not shown. Residues count along the entry.
UniProt P56817, 46-501: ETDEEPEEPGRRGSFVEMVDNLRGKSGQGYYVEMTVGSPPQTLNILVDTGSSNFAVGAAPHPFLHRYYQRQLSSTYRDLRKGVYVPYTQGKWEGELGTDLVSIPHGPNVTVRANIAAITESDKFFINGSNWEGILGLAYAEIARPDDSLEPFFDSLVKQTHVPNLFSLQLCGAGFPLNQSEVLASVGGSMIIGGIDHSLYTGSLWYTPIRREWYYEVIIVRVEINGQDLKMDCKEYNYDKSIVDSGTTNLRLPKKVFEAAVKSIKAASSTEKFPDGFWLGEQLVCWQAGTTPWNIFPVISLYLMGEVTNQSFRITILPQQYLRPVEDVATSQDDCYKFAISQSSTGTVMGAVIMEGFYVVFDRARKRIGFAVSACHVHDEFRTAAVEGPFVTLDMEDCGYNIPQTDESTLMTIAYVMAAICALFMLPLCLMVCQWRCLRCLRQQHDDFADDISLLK

Molecular target: T1, Recombinant human BACE1 (Homo sapiens, UniProt P56817)
T1 construct: purchased R&D Systems
Test: Assay of BACE1 inhibiting activity
Type: biochemical
Details: Recombinant human BACE1 7.4 nmol/L, substrate peptide 18 nmol/L, pH 5.0, 30° C., 3.5 hours; read-out: 50% inhibitory concentration against the enzymatic activity (IC50)
Experimental: 48.5 μL of substrate peptide solution (Biotin-XSEVNLDAEFRHDSGC-Eu: X=ε-amino-n-capronic acid, Eu=Europium cryptate) was added to each well of 96-hole half-area plate (a black plate: Costar), and after addition of 0.5 μl of the compound of the present invention (DMSO solution) and 1 μl of Recombinant human BACE1(R&D Systems), the reaction mixture was incubated at 30° C. for 3.5 hours. The substrate peptide was synthesized by reacting Cryptate TBPCOOH mono SMP (CIS bio international) with Biotin-XSEVNLDAEFRHDSGC (Peptide Institute, Inc.). The final concentrations of the substrate peptide and Recombinant human BACE1 were adjusted to 18 nmol/L and 7.4 nmol/L, respectively, and the reaction was performed in sodium acetate buffer (50 mmol/L sodium acetate, pH 5.0, 0.008% Triton X-100).
After the incubation for reaction, 50 μl of 8.0 μg/ml Streptavidin-XL665 (CIS bio international) dissolved in phosphate buffer (150 mmol/L K2 HPO4—KH2 PO4, pH 7.0, 0.008% Triton X-100, 0.8 mol/L KF) was added to each well and left stand at 30° C. for 45 minutes. After then, fluorescence intensity was measured (excitation wavelength: 320 nm, measuring wavelength: 620 nm and 665 nm) using Wallac 1420 multilabel counter (Perkin Elmer life sciences).

Row | Structure (SMILES) | IC50 [µM]
1 | C[C@@]1(c2cc(NC(=O)c3ncc(OCC(F)F)nc3N)ccc2Cl)C=C(CF)OC(N)=N1 [Compound I-48] | ≤ 1
2 | COc1cnc(C(=O)Nc2ccc(F)c([C@]3(C)C=C(CF)OC(N)=N3)c2)c(N)n1 [Compound I-39] | ≤ 1
3 | NC1=N[C@](CF)(c2cc(NC(=O)c3cnc(OCF)cn3)ccc2F)C=CO1 [Compound I-163] | ≤ 1
4 | C[C@@]1(c2cc(NC(=O)c3ncc(C#N)cc3N)ccc2F)C=C(CF)OC(N)=N1 [Compound I-142] | ≤ 1
5 | C[C@@]1(c2cc(NC(=O)c3ccc(Cl)cn3)ccc2F)C=C(C(F)F)OC(N)=N1 [Compound I-170] | ≤ 1
6 | C[C@@]1(c2cc(NC(=O)c3ncc(Cl)cc3C(F)(F)F)ccc2F)C=C(CF)OC(N)=N1 [Compound I-37] | ≤ 1
7 | Cc1cc(OCC(F)F)cnc1C(=O)Nc1ccc(F)c([C@]2(C)C=C(CF)OC(N)=N2)c1 [Compound I-57] | ≤ 1
8 | CC1=C[C@@](C)(c2cc(NC(=O)c3cnc(OCF)cn3)ccc2F)N=C(N)O1 [Compound I-1] | ≤ 1
9 | Cc1cc(OC(F)F)cnc1C(=O)Nc1ccc(F)c([C@]2(C)C=C(CF)OC(N)=N2)c1 [Compound I-130] | ≤ 1
10 | C[C@@]1(c2cccc(NC(=O)c3coc(C(F)F)n3)c2)C=C(CF)OC(N)=N1 [Compound I-23] | ≤ 1
11 | C[C@@]1(c2cc(NC(=O)c3ncc(C#N)cc3C3CC3)ccc2Cl)C=C(CF)OC(N)=N1 [Compound I-107] | ≤ 1
12 | C[C@@]1(c2cc(NC(=O)c3cnc(C(F)F)cn3)ccc2Cl)C=C(CF)OC(N)=N1 [Compound I-46] | ≤ 1
13 | C[C@@]1(c2cccc(NC(=O)c3ncc(C#N)cc3C3CC3)c2)C=C(CF)OC(N)=N1 [Compound I-108] | ≤ 1
14 | CC1=C[C@@](CF)(c2cc(NC(=O)c3cnc(OCF)cn3)ccc2F)N=C(N)O1 [Compound I-89] | ≤ 1
15 | CC1=C[C@@](CF)(c2cc(NC(=O)c3cnc(C(F)F)cn3)ccc2F)N=C(N)O1 [Compound I-95] | ≤ 1
16 | C[C@@]1(c2cc(NC(=O)c3ncc(C#N)cc3C(F)(F)F)ccc2Cl)C=C(CF)OC(N)=N1 [Compound I-134] | ≤ 1
17 | C[C@@]1(c2cc(NC(=O)c3ncc(F)cc3N)ccc2F)C=C(CF)OC(N)=N1 [Compound I-66] | ≤ 1
18 | COc1cnc(C(=O)Nc2ccc(F)c([C@]3(C)C=C(CF)OC(N)=N3)c2)c(C)n1 [Compound I-155] | ≤ 1
19 | COc1cnc(C(=O)Nc2ccc(F)c([C@]3(CF)C=C(C)OC(N)=N3)c2)c(N)n1 [Compound I-94] | ≤ 1
20 | NC1=N[C@](CF)(c2cc(NC(=O)c3ncc(Cl)cc3Cl)ccc2F)C=CO1 [Compound I-162] | ≤ 1
21 | C[C@@]1(c2cc(NC(=O)c3ncc(C#N)cc3CF)ccc2Cl)C=C(CF)OC(N)=N1 [Compound I-148] | ≤ 1
22 | COc1cnc(C(=O)Nc2ccnc([C@]3(C)C=C(C)OC(N)=N3)c2)cn1 [Compound I-85] | ≤ 1
23 | C#Cc1ccc(C(=O)Nc2ccnc([C@]3(C)C=C(C)OC(N)=N3)c2)nc1 [Compound I-83] | ≤ 1
24 | C[C@@]1(c2cc(NC(=O)c3ncc(OCC(F)F)nc3N)ccc2F)C=C(CF)OC(N)=N1 [Compound I-87] | ≤ 1
25 | Cc1cc(OCF)cnc1C(=O)Nc1cccc([C@]2(C)C=C(CF)OC(N)=N2)c1 [Compound I-100] | ≤ 1
26 | C[C@@]1(c2cccc(NC(=O)c3ncc(C#N)cc3C(F)(F)F)c2)C=C(CF)OC(N)=N1 [Compound I-135] | ≤ 1
27 | CC1=C[C@@](C)(c2cc(NC(=O)c3ncc(Cl)cc3Cl)ccn2)N=C(N)O1 [Compound I-74] | ≤ 1
28 | C[C@@]1(c2cc(NC(=O)c3ncc(C(F)F)nc3N)ccc2Cl)C=C(CF)OC(N)=N1 [Compound I-150] | ≤ 1
29 | CC1=C[C@@](C)(c2cc(NC(=O)c3ncc(C#N)cc3Cl)ccn2)N=C(N)O1 [Compound I-79] | ≤ 1
30 | CC1=C[C@@](CF)(c2cc(NC(=O)c3ncc(C#N)cc3CF)ccc2F)N=C(N)O1 [Compound I-151] | ≤ 1
